Changes are numbered by the printed parent chain. Like-named read-outs stand apart in the source and are kept apart here. No constants are given. Whether binding was seen depends on the method and setting. Binding seen in cells or lysates may run through a third protein. Here binding means that the protein was enriched with, or labelled near, the bait; the list need not be complete. For some assays here: A no says only that the protein was not detected with the bait. Where a sequence is shown, tags or fusion partners need not be part of it.
How the values were obtained:
Assay in all cases: affinity purification with mass spectrometry; ChIP-MS (RIME protocol): mouse ES cells fixed with 1% formaldehyde 10 min at 22 °C, nuclei sonicated in LB3 with 20 mM NEM; 3xFLAG bait (Morc3 or Daxx) precipitated with FLAG-M2 antibody on Protein G Dynabeads, 4 h; washes with RIPA buffer (500 mM LiCl); LC-MS/MS, iBAQ; the paper says that associations may be direct, transient or mediated through DNA/RNA fragments
[1] = target: T1, Morc3 ATP binding mutant (G101A), 3xFLAG tagged (UniProt F7BJB9)
T1 sequence: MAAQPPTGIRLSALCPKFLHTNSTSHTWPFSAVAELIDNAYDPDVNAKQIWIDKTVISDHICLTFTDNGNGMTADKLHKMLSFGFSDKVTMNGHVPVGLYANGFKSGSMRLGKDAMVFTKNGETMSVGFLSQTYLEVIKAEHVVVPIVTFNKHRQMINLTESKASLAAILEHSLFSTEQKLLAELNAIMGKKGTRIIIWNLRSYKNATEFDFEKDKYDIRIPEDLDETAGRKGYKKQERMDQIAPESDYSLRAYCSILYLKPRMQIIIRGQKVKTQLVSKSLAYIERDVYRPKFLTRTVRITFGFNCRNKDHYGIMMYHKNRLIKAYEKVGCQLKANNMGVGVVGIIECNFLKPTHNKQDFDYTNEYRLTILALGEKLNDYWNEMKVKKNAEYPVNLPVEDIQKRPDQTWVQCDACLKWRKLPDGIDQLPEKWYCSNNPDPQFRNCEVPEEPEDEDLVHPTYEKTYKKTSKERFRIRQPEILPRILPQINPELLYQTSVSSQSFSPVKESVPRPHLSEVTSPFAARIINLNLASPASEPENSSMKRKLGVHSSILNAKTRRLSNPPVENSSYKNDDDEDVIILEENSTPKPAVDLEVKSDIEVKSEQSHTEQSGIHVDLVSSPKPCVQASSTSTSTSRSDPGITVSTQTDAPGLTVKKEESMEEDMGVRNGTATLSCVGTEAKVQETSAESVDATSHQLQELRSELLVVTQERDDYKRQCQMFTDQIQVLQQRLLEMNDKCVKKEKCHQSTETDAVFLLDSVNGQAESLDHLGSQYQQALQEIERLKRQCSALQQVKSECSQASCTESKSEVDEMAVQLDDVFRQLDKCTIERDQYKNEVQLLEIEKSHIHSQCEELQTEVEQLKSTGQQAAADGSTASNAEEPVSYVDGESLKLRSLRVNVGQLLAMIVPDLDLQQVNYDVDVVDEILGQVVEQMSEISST

Chains of the proteins cited; added tags and fusions are not shown.
UniProt O35613: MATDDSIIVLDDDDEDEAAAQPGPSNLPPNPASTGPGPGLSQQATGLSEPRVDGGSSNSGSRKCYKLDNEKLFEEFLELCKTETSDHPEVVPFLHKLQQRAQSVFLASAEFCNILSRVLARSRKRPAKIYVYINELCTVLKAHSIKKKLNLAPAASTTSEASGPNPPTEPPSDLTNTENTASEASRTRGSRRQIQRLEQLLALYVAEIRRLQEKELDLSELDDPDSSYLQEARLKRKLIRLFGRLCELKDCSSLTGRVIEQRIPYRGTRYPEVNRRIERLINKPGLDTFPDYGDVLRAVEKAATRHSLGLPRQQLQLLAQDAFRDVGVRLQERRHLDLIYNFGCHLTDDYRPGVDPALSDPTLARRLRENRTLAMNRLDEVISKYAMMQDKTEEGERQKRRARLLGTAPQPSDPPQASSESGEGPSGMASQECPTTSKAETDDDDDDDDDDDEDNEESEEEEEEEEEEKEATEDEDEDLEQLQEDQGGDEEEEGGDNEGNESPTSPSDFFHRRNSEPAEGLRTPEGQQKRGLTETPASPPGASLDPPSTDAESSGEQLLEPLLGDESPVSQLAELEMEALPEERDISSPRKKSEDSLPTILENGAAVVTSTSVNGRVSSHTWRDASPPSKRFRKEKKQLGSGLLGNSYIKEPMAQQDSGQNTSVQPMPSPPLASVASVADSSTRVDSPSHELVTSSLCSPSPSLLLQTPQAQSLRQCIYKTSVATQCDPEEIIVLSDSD
UniProt P13864: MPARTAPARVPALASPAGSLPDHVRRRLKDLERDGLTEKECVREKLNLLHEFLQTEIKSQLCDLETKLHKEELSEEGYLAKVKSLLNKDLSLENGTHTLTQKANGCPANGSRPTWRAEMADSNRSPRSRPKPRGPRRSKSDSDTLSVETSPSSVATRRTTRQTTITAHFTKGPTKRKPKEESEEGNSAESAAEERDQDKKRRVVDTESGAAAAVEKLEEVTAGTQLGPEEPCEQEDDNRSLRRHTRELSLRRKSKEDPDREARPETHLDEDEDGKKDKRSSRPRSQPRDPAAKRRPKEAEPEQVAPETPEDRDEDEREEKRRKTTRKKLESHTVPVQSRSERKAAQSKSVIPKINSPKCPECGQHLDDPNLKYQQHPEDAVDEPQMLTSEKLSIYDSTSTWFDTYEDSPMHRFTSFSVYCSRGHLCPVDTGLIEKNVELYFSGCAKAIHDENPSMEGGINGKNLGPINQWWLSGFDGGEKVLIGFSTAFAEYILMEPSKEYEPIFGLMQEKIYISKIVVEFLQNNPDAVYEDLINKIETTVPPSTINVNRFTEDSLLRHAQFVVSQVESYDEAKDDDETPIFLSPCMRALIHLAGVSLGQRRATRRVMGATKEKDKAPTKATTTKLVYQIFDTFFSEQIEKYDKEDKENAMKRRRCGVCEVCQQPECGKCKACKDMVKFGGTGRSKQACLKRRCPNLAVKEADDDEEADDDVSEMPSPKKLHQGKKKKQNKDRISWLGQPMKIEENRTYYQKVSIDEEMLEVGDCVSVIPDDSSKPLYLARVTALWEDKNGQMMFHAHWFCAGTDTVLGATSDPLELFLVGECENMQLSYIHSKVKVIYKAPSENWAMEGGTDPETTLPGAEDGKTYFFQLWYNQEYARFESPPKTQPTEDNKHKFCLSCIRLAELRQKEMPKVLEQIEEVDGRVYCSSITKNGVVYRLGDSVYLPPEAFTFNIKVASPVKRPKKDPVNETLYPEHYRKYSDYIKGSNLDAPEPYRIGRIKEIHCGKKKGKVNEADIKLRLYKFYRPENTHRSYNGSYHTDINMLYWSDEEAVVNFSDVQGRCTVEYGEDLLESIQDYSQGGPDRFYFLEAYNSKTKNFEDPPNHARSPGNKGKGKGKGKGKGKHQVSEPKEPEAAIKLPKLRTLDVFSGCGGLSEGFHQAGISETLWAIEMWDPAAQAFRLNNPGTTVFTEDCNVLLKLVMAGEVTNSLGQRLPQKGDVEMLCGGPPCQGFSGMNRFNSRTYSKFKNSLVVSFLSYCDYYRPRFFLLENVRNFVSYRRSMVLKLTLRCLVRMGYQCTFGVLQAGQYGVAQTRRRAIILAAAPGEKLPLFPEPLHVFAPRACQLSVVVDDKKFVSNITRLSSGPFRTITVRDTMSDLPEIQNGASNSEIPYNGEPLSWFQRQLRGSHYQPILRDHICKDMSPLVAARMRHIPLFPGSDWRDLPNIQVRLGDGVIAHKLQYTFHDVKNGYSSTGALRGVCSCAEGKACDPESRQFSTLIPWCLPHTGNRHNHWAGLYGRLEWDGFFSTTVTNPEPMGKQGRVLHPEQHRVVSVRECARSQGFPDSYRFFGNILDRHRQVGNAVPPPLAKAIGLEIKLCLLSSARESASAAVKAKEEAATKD

[2] = target: T2, Morc3-3xFLAG (knock-in, expressed at endogenous levels) (mouse (endogenous in mouse ES cells)) (UniProt F7BJB9)
T2 sequence: T1 sequence with A101G

[3] = target: Daxx wild type, 3xFLAG tagged (rescue construct) (UniProt O35613)
[4] = target: T2, Morc3-3xFLAG (knock-in, expressed at endogenous levels) (mouse (endogenous in mouse ES cells)); remark: listed apart in the source

Daxx (endogenous) (from UniProt O35613 1-739)
binding [1]: no binding
binding [2]: binds

Dnmt1 (endogenous) (from UniProt P13864 1-1620)
binding [2]: binds

B1: Morc3 (endogenous, untagged) (protein, UniProt F7BJB9 1-942)
chain: T1 sequence with A101G
binding [3]: binds

B2: Uhrf1 (endogenous) (protein, UniProt Q8VDF2 1-782)
chain: MWIQVRTMDGKETHTVNSLSRLTKVQELRKKIEEVFHVEPQLQRLFYRGKQMEDGHTLFDYDVRLNDTIQLLVRQSLALPLSTKERDSELSDSDSGYGVGHSESDKSSTHGEGAAEADDKTVWEDTDLGLYKVNEYVDVRDNIFGAWFEAQVVQVQKRALSEDEPCSSSAVKTSEDDIMYHVKYDDYPEHGVDIVKAKNVRARARTVIPWENLEVGQVVMANYNVDYPRKRGFWYDVEICRKRQTRTARELYGNIRLLNDSQLNNCRIMFVDEVLMIELPKERRPLIASPSQPPPALRNTGKSGPSCRFCKDDENKPCRKCACHVCGGREAPEKQLLCDECDMAFHLYCLKPPLTSVPPEPEWYCPSCRTDSSEVVQAGEKLKESKKKAKMASATSSSRRDWGKGMACVGRTTECTIVPANHFGPIPGVPVGTMWRFRVQVSESGVHRPHVAGIHGRSNDGAYSLVLAGGYEDDVDNGNYFTYTGSGGRDLSGNKRTAGQSSDQKLTNNNRALALNCHSPINEKGAEAEDWRQGKPVRVVRNMKGGKHSKYAPAEGNRYDGIYKVVKYWPERGKSGFLVWRYLLRRDDTEPEPWTREGKDRTRQLGLTMQYPEGYLEALANKEKSRKRPAKALEQGPSSSKTGKSKQKSTGPTLSSPRASKKSKLEPYTLSEQQANLIKEDKGNAKLWDDVLTSLQDGPYQIFLSKVKEAFQCICCQELVFRPVTTVCQHNVCKDCLDRSFRAQVFSCPACRFELDHSSPTRVNQPLQTILNQLFPGYGSGR
binding [4]: binds

— publication PMC8516933
